No constants are given. Whether binding was seen depends on the method and setting. Some binding calls cover weakened binding; strength is not graded here.

Sequences of proteins named here, by UniProt entry; tags and fusion partners are left off.
UniProt Q61221: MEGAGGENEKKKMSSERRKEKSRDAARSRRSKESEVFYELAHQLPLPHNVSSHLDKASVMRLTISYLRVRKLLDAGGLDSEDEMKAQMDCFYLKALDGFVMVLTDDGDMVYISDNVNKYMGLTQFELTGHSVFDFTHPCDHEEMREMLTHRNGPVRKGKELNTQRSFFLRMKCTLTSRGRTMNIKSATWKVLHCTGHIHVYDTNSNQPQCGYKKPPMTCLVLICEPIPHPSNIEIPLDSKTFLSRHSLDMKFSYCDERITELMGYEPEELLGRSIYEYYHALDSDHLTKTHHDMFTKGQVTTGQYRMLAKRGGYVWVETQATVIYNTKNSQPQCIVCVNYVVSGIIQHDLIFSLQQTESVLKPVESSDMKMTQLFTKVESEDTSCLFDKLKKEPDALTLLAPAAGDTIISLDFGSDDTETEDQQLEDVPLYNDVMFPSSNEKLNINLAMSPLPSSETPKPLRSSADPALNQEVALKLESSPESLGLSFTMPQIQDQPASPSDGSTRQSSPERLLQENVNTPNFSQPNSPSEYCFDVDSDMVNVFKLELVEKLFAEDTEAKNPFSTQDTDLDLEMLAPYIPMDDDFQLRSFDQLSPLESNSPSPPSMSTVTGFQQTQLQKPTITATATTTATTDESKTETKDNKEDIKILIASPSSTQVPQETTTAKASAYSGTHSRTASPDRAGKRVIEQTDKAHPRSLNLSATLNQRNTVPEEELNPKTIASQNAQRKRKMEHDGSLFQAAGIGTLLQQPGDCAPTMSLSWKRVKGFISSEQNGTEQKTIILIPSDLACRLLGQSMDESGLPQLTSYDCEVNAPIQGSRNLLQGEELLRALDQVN
UniProt Q3TKT4: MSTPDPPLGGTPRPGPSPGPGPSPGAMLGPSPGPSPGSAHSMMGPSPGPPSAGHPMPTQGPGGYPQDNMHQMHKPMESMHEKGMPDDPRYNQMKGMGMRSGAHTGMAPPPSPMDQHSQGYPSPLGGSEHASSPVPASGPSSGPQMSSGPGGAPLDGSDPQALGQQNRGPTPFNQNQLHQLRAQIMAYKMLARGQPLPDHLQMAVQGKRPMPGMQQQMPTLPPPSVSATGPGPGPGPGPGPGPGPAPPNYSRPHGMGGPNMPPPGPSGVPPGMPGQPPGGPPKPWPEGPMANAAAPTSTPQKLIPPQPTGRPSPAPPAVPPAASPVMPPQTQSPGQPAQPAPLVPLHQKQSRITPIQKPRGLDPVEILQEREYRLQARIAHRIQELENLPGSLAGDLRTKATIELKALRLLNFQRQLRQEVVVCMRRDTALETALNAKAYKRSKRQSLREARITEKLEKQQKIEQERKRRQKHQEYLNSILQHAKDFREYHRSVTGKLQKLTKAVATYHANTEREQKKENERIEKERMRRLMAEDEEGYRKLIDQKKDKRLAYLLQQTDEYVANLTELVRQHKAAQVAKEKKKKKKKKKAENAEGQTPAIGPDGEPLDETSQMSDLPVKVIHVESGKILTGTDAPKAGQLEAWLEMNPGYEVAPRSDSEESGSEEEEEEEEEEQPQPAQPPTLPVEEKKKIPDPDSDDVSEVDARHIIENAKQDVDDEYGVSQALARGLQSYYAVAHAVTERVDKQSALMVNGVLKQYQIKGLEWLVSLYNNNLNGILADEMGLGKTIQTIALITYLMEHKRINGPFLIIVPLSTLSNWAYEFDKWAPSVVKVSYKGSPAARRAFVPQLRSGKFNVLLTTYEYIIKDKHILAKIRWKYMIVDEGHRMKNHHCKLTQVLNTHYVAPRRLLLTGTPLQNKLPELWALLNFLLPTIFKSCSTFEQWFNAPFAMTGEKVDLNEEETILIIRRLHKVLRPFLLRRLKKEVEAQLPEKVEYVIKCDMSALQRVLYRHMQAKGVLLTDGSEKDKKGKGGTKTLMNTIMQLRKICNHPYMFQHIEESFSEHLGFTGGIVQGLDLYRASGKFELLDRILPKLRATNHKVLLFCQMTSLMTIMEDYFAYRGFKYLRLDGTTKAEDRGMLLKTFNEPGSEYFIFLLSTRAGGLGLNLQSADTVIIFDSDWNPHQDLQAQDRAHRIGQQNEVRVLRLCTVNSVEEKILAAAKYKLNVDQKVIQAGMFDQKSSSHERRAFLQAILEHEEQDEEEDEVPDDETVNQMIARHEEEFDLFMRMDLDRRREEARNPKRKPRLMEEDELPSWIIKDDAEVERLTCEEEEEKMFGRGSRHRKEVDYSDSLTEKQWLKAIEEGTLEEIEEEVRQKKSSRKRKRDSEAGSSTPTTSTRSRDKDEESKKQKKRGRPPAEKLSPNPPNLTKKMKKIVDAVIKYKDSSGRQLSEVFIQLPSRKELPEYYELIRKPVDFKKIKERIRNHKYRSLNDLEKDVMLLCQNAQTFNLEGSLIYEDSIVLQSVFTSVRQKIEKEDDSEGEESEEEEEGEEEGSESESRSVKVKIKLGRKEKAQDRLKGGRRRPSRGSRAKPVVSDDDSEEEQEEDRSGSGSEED

The test addresses hypoxia-inducible factor 1 alpha (HIF-1α) (mouse (endogenous in primary murine hepatocytes)) (UniProt Q61221). Nature of the test: Re-ChIP (ChIP-on-ChIP, sequential chromatin immunoprecipitation); primary murine hepatocytes treated with HGF and harvested at indicated time points; chromatin cross-linked with 1% formaldehyde; sequential precipitation with indicated antibodies; Chka promoter DNA amplified.

“Brahma-related gene 1 (Brg1) (from UniProt Q3TKT4 1-1613)”: the binding result is reported as “binds”.

Source of the values: PMC8377418.
